The values below come from PMC10998217.

Chains of the proteins cited; added tags and fusions are not shown.
UniProt Q9Y5T5: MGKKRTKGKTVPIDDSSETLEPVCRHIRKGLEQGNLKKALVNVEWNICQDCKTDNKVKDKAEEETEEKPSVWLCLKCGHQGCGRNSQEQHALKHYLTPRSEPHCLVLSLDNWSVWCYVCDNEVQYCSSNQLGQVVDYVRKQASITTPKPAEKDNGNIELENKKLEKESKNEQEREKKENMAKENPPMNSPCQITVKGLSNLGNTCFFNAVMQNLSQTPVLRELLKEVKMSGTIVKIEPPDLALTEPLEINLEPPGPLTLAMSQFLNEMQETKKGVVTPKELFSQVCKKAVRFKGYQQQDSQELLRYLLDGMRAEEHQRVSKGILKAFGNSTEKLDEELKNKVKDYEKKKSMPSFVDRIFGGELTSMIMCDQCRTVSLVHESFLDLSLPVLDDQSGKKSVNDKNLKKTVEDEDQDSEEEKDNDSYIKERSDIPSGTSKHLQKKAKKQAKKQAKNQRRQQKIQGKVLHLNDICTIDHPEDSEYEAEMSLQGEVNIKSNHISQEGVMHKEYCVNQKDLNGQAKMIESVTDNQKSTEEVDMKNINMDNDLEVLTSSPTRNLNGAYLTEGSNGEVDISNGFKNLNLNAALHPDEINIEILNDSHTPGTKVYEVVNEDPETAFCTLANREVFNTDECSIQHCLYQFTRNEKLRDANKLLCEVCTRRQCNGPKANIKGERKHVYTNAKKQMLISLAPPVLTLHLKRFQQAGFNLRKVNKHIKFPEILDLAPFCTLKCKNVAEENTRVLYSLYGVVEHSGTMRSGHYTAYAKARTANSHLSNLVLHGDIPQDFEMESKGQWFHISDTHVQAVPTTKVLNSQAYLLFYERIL

These are yes or no findings as the source states them, for the method shown. In cells and extracts the contact can be indirect. Some entries that bind do so weakly or less than the wild type. For some assays here: Sequences can lack the tags named with a protein.

Assay [1] addresses Flag-USP16 (ubiquitin-specific peptidase 16) (UniProt Q9Y5T5). Description: co-IP; HeLa cells cotransfected with Myc-OGT and Flag-USP16; lysates immunoprecipitated with anti-Flag antibody, blotted with anti-Myc.
For assay [2], the target named is USP16, endogenous (ubiquitin-specific peptidase 16) (human (endogenous in HeLa)) (UniProt Q9Y5T5). Description: co-IP; endogenous proteins; HeLa cells untreated (asynchronous) or synchronized to M phase by nocodazole; lysates immunoprecipitated with anti-USP16 antibodies, immunoblotted with anti-OGT. (In general: Immunoblotting shows a protein as a band on a membrane.)

B1: Myc-OGT (O-GlcNAc transferase) (enzyme, UniProt O15294 1-1046)
chain: MASSVGNVADSTEPTKRMLSFQGLAELAHREYQAGDFEAAERHCMQLWRQEPDNTGVLLLLSSIHFQCRRLDRSAHFSTLAIKQNPLLAEAYSNLGNVYKERGQLQEAIEHYRHALRLKPDFIDGYINLAAALVAAGDMEGAVQAYVSALQYNPDLYCVRSDLGNLLKALGRLEEAKACYLKAIETQPNFAVAWSNLGCVFNAQGEIWLAIHHFEKAVTLDPNFLDAYINLGNVLKEARIFDRAVAAYLRALSLSPNHAVVHGNLACVYYEQGLIDLAIDTYRRAIELQPHFPDAYCNLANALKEKGSVAEAEDCYNTALRLCPTHADSLNNLANIKREQGNIEEAVRLYRKALEVFPEFAAAHSNLASVLQQQGKLQEALMHYKEAIRISPTFADAYSNMGNTLKEMQDVQGALQCYTRAIQINPAFADAHSNLASIHKDSGNIPEAIASYRTALKLKPDFPDAYCNLAHCLQIVCDWTDYDERMKKLVSIVADQLEKNRLPSVHPHHSMLYPLSHGFRKAIAERHGNLCLDKINVLHKPPYEHPKDLKLSDGRLRVGYVSSDFGNHPTSHLMQSIPGMHNPDKFEVFCYALSPDDGTNFRVKVMAEANHFIDLSQIPCNGKAADRIHQDGIHILVNMNGYTKGARNELFALRPAPIQAMWLGYPGTSGALFMDYIITDQETSPAEVAEQYSEKLAYMPHTFFIGDHANMFPHLKKKAVIDFKSNGHIYDNRIVLNGIDLKAFLDSLPDVKIVKMKCPDGGDNADSSNTALNMPVIPMNTIAEAVIEMINRGQIQITINGFSISNGLATTQINNKAATGEEVPRTIIVTTRSQYGLPEDAIVYCNFNQLYKIDPSTLQMWANILKRVPNSVLWLLRFPAVGEPNIQQYAQNMGLPQNRIIFSPVAPKEEHVRRGQLADVCLDTPLCNGHTTGMDVLWAGTPMVTMPGETLASRVAASQLTCLGCLELIAKNRQEYEDIAVKLGTDLEYLKKVRGKVWKQRISSPLFNTKQYTMELERLYLQMWEHYAAGNKPDHMIKPVEVTESA
As for B1, the binding entry in assay [1] is “binds”.

B2: OGT, endogenous (O-GlcNAc transferase) (enzyme, UniProt O15294 1-1046)
chain: B1 chain
As to B2, the binding result in assay [2] is listed as “binds”.
